According to publication doi:10.1101/2021.09.20.460979:
No constants are given. Whether binding was seen depends on the method and setting. In cells and extracts the contact can be indirect. Some entries that bind do so weakly or less than the wild type.

Chains of the proteins cited; added tags and fusions are not shown. Residues count along the entry.
UniProt P08581, residues 25-1390: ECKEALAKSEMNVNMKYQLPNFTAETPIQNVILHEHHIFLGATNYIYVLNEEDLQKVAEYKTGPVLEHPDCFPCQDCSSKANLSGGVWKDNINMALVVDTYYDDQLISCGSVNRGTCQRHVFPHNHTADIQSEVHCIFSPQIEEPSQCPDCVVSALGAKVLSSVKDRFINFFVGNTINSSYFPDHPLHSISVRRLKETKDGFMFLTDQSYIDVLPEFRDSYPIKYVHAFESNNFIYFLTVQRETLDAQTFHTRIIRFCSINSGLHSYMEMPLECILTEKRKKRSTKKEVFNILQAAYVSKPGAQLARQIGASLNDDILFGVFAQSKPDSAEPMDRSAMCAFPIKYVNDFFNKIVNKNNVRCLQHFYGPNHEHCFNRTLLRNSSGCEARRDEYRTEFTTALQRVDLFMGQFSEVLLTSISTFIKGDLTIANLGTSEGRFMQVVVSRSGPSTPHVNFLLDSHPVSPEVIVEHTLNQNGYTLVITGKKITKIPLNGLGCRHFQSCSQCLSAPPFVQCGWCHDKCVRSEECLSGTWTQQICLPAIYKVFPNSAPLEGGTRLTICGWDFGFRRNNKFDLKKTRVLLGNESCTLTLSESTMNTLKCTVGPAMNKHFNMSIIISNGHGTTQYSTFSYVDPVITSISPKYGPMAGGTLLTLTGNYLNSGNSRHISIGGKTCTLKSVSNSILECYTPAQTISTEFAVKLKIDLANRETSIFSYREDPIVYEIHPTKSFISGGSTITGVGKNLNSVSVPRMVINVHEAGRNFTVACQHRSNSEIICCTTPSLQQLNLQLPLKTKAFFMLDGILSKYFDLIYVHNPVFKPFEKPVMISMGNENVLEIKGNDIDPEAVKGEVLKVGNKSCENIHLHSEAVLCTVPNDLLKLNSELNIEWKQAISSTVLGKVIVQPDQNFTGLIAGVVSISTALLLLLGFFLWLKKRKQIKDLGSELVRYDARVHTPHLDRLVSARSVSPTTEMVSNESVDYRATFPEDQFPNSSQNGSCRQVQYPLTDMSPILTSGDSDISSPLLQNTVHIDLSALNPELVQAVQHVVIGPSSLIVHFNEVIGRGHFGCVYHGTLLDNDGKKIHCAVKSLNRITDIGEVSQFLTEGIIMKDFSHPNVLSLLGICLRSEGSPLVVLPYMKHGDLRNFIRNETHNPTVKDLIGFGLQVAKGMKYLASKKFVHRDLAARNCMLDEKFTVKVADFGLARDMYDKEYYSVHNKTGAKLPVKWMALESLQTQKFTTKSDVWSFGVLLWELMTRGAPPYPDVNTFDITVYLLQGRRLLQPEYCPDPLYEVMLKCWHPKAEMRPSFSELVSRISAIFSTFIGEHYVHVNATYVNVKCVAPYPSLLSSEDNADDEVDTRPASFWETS

Molecular target: endogenous c-MET (cellular mesenchymal-epidermal transition receptor) immunoprecipitated from 293T cells (human (endogenous in 293T)) (UniProt P08581)
Test: pull-down

binding: binds
Substance: Flag-tagged HGF WT (hepatocyte growth factor), in-vitro translated (from UniProt P14210-1 1-728) (ligand)
